Results: the supplement of paper PMC12067093, “Discovery and optimisation of a covalent ligand for TRIM25 and its application to targeted protein ubiquitination” (Chemical Science, 2025)
Some of the results follow.

The chains behind the UniProt entries cited, without tags or fusion partners. Where a name states a change or a piece, a line headed by the entry shows the natural chain unless it says otherwise.
UniProt Q9ULW0, whole entry, looked up: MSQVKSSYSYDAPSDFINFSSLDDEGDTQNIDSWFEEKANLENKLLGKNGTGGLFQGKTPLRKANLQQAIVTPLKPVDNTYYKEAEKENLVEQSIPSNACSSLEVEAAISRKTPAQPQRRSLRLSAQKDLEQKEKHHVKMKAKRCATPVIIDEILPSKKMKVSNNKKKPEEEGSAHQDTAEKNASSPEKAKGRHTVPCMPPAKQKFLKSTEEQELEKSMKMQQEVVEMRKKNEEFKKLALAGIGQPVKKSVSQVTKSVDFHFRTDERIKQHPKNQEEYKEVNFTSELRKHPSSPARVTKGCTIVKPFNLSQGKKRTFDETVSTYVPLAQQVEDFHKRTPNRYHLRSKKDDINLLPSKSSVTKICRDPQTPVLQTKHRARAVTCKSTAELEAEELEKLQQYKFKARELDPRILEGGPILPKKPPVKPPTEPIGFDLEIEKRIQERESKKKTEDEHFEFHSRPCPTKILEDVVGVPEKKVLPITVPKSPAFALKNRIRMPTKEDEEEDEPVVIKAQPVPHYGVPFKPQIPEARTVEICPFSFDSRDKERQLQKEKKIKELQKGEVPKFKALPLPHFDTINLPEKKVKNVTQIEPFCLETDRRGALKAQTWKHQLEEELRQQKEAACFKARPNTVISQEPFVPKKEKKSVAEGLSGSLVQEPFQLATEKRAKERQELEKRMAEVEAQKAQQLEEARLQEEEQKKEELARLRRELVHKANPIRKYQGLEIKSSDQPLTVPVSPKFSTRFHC
UniProt Q7Z2T5: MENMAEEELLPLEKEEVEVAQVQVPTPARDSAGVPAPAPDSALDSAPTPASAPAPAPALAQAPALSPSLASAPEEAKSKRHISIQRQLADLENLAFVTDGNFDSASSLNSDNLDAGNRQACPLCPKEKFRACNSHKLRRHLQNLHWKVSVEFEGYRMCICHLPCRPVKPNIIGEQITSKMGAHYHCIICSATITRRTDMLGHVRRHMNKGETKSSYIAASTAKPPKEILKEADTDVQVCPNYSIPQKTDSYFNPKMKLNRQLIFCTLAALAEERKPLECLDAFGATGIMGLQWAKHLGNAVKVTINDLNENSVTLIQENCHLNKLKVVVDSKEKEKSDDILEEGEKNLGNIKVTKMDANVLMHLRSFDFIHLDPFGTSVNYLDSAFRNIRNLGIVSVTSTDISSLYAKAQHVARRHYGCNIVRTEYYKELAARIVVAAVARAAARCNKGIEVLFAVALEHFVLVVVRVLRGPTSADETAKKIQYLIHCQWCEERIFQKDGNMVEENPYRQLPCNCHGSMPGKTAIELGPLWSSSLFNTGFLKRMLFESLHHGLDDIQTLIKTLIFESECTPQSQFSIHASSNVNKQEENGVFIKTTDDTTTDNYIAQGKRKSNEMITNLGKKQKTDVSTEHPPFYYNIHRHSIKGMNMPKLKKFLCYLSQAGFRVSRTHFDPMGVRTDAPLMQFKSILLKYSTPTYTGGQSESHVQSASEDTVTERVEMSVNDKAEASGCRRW
UniProt O14545: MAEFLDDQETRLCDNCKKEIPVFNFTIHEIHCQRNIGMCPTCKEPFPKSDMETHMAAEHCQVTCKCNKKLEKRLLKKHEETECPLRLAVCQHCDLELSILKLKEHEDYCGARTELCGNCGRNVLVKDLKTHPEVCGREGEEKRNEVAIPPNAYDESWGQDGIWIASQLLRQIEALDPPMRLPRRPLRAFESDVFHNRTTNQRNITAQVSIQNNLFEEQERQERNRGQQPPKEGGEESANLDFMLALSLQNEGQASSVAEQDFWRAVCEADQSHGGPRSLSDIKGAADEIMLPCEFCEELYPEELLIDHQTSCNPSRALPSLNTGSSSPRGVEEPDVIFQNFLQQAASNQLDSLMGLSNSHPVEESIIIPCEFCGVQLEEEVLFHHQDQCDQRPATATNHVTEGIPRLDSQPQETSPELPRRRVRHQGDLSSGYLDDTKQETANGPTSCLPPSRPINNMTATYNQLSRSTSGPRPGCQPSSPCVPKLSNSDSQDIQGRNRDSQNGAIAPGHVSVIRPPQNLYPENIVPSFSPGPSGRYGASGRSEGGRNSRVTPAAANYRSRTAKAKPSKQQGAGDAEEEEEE
UniProt P19474, whole entry, looked up: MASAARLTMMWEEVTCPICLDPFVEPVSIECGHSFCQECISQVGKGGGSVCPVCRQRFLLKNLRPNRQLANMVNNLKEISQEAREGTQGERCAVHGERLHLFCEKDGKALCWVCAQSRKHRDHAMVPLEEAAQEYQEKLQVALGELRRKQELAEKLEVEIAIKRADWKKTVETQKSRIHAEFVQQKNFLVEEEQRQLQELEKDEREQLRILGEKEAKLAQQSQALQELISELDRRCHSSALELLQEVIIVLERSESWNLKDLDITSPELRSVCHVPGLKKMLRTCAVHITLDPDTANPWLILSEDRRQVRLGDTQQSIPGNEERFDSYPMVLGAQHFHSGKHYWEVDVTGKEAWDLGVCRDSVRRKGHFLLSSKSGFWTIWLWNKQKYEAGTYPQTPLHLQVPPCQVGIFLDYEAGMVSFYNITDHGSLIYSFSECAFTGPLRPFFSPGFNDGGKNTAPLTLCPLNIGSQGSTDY
UniProt Q9Y2L5: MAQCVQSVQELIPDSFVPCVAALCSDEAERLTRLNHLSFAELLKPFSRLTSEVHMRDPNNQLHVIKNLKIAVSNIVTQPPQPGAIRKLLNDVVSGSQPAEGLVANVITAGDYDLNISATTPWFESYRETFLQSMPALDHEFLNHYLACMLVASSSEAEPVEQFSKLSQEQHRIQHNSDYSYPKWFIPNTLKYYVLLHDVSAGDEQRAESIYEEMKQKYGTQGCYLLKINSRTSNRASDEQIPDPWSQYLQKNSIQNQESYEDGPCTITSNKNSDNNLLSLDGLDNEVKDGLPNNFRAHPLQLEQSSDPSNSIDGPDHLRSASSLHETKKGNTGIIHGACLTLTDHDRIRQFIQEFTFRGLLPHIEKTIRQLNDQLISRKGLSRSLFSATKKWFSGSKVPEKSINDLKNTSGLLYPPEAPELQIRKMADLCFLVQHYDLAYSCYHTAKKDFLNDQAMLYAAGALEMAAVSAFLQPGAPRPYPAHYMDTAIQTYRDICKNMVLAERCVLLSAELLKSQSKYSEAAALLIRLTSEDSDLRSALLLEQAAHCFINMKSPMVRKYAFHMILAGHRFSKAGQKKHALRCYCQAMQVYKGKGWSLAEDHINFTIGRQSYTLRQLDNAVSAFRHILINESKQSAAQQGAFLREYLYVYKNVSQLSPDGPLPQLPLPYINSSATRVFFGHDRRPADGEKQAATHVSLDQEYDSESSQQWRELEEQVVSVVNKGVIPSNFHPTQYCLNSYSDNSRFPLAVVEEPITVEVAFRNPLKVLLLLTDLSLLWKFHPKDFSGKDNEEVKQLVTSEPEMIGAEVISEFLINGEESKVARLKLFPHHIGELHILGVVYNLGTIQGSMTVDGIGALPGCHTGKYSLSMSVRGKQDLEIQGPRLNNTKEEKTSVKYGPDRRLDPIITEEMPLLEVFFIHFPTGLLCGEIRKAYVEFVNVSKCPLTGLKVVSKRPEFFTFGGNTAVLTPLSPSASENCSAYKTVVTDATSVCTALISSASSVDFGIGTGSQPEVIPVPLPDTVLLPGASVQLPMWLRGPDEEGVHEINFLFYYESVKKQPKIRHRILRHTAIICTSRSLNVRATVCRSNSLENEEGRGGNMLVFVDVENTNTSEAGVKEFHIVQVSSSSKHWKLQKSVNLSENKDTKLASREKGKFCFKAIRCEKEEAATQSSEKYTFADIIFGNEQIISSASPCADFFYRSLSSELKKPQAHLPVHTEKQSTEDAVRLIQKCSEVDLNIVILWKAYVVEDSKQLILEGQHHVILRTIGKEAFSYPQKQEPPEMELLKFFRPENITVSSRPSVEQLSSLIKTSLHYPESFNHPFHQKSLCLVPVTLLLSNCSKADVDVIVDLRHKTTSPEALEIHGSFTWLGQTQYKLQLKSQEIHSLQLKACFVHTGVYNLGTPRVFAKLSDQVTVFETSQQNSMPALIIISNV
UniProt Q15650: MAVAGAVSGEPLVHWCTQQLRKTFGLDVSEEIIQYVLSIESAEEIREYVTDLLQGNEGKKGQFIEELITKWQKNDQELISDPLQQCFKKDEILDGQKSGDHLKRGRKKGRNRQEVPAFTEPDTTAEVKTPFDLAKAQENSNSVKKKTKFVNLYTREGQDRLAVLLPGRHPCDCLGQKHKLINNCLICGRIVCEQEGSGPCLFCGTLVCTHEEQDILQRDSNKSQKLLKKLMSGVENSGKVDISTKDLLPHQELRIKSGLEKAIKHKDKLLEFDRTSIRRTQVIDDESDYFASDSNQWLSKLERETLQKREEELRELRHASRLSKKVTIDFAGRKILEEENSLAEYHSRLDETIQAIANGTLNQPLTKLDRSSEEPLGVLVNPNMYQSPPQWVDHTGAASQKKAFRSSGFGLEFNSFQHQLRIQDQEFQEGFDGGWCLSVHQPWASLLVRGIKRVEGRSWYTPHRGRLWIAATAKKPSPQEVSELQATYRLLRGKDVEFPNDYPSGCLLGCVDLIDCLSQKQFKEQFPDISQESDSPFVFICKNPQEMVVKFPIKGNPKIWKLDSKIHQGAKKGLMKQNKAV
UniProt Q13263: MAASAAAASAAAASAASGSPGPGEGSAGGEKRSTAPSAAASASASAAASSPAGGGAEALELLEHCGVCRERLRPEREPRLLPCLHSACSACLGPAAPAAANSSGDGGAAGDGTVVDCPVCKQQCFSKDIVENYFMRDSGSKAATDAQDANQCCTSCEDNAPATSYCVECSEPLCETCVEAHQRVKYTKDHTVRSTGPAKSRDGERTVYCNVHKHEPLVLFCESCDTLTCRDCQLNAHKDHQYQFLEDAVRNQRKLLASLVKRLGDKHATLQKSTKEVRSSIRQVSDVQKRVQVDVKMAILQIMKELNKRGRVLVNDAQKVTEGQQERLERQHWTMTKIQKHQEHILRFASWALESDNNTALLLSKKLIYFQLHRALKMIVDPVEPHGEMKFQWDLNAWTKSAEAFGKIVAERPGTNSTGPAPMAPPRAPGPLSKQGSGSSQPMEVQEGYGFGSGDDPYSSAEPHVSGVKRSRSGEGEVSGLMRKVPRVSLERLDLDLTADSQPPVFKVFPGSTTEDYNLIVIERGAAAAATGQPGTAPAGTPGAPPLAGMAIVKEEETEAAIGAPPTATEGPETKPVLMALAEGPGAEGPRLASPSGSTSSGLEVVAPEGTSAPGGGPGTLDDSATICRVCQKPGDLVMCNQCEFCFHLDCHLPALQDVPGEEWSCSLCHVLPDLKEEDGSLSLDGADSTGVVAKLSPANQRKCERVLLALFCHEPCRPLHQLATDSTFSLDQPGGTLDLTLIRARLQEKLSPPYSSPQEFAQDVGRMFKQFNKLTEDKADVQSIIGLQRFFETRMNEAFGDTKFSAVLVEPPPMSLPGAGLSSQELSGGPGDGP
UniProt Q9UPN9: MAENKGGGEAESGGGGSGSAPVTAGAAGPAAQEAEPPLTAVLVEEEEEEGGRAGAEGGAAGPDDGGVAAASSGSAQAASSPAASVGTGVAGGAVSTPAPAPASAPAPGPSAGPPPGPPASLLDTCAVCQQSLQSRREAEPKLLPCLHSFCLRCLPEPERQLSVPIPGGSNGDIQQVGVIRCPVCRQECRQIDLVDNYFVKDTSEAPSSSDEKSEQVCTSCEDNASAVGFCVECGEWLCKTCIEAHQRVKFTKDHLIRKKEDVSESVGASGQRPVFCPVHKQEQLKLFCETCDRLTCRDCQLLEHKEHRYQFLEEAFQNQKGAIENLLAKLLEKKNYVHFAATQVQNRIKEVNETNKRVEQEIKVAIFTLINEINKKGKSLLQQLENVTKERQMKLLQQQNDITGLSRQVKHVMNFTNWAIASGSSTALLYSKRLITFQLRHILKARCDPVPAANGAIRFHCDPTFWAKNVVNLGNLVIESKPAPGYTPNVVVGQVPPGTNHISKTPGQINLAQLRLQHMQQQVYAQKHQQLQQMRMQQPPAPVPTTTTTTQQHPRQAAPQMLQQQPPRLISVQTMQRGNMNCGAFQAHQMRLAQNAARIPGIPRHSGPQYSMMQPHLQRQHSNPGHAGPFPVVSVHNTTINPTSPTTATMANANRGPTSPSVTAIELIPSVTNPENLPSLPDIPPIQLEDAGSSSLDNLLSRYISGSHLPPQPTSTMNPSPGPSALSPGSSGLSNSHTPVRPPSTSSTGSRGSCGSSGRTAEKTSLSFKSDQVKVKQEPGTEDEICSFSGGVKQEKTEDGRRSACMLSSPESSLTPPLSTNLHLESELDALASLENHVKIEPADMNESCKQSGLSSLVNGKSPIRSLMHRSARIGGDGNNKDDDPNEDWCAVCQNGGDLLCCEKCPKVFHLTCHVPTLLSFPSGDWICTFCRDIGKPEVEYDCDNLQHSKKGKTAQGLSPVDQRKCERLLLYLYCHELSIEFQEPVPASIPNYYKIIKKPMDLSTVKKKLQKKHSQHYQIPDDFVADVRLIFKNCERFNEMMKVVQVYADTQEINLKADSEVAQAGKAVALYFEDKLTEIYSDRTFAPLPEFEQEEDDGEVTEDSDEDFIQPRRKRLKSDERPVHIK
UniProt O43715: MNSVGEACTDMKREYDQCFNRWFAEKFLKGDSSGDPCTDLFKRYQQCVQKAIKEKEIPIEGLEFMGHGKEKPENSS

Compound: CC1Cc2ccccc2N1C(=O)C1CCCN(C1)C(=O)CCl (mixture of isomers) [TRIM25 ligand 11 (diastereomer mixture)]
Assay: probe-labelled cysteine peptide fold change vs DMSO (competition) (log2 fold change); higher = less target engagement (more negative = stronger competition)
Conditions: THP-1, incubation time: 4 h
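Also: competitive chemoproteomic profiling in live THP-1 cells with an iodoacetamide desthiobiotin (IA-DTB) probe, comparing probe-labelled peptide intensities in compound-treated cells against DMSO-treated controls.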

| Target | probe-labelled cysteine peptide fold change (10 µM) | probe-labelled cysteine peptide fold change (50 µM) |
| --- | --- | --- |
| TPM3_P06753-2_233_EEHLCTQR (UniProt P06753) | 0.304 | -0.142 |
| TRAPPC10_P48553_1025_WTEEPPPSLHCR (UniProt P48553) | 0.197 | 0.0441 |
| TPX2_Q9ULW0_301_GCTIVK (UniProt Q9ULW0) | 0.0992 | 0.152 |
| TRIM36_Q9NQ86_363_ETDQSCFVQTAK (UniProt Q9NQ86) | 0.0132 | -0.0332 |
| TRMT1L_Q7Z2T5_121_QACPLCPK (UniProt Q7Z2T5) | -0.0179 | 0.0301 |
| TPRKB_Q9Y3C4_13_MQLTHQLDLFPECR (UniProt Q9Y3C4) | -0.0889 | -0.238 |
| TPP2_P29144_614_EGLHYTEVCGYDIASPNAGPLFR (UniProt P29144) | 0.0586 | -0.155 |
| TRAFD1_O14545_109_EHEDYCGAR (UniProt O14545) | 0.11 | 0.0522 |
| TRAPPC11_Q7Z392_553_NLINVLMNESPDPEPDCDILAVK (UniProt Q7Z392) | -0.0731 | 0.0232 |
| TPP2_P29144_1129_KGCALADHLLHTQAQDGAISTDAEGKEEEGESPLDSLAETFWETTK (UniProt P29144) | 0.0582 | -0.156 |
| TRAFD1_O14545_116_TELCGNCGR (UniProt O14545) | -0.00926 | 0.0109 |
| TRIM21_P19474_54_GGGSVCPVCR (UniProt P19474) | -0.0581 | 0.0928 |
| TRAFD1_O14545_83_HEETECPLR (UniProt O14545) | 0.00151 | -0.00613 |
| TRIM25_Q14258_179_LREFFCPEHSECICHICLVEHK (UniProt Q14258) | -0.158 | 0.0459 |
| TRAPPC8_Q9Y2L5_548_SALLLEQAAHCFINMK (UniProt Q9Y2L5) | -0.0807 | 0.0145 |
| TRANK1_O15050_2361_THLCFIR (UniProt O15050) | 0.00759 | 0.134 |
| TRAPPC9_Q96Q05_179_IPLLCVPFEK (UniProt Q96Q05) | 0.174 | 0.119 |
| TPP2_P29144_209_ACIDSNEDGDLSK (UniProt P29144) | 0.0955 | -0.018 |
| TRAF6_Q9Y4K3_249_EQMPNHYDLDCPTAPIPCTFSTFGCHEK (UniProt Q9Y4K3) | -0.0227 | -0.125 |
| TRABD_Q9H4I3_108_EVQPDVVVVELCQYR (UniProt Q9H4I3) | 0.0568 | 0.0505 |
| TRIP13_Q15645_14_QALPCVAESPTVHVEVHQR (UniProt Q15645) | 0.0497 | 0.0192 |
| TPT1_P13693_28_IREIADGLCLEVEGK (UniProt P13693) | 0.0289 | -0.0674 |
| TRIP6_Q15654_307+310_VFHVGCFVCSTCR (UniProt Q15654) | 0.143 | 0.189 |
| TRIM5_Q9C035_95_VDHCAR (UniProt Q9C035) | -0.0308 | -0.00128 |
| TRIP4_Q15650_541_EQFPDISQESDSPFVFICK (UniProt Q15650) | -0.149 | 0.138 |
| TRMT11_Q7Z4G4_161_KPQHVFSVLEDYGLDPNCIPENPHNIYFGR (UniProt Q7Z4G4) | 0.0156 | 0.0188 |

| Target | probe-labelled cysteine peptide fold change (10 µM) | probe-labelled cysteine peptide fold change (50 µM) |
| --- | --- | --- |
| TRAPPC11_Q7Z392_117_QSECATR (UniProt Q7Z392) | 0.0194 | 0.0465 |
| TPM3_P06753-2_170_CLSAAEEK (UniProt P06753) | 0.396 | -0.0527 |
| TRHDE_Q9UKU6_894_ILLEALTCSDDRNLLNR (UniProt Q9UKU6) | 0.0166 | 0.256 |
| TRERF1_Q96PN7_1065_QKPGGTQSGYCSVK (UniProt Q96PN7) | -0.127 | -0.11 |
| TRMT1L_Q7Z2T5_186_MGAHYHCIICSATITR (UniProt Q7Z2T5) | -0.126 | 0.152 |
| TRIM24_O15164_134_CPVCSQECAER (UniProt O15164) | -0.0741 | 0.159 |
| TRAPPC11_Q7Z392_502_CSYLMAQLK (UniProt Q7Z392) | 0.192 | 0.235 |
| TRAPPC13_A5PLN9_127_LNLSASNAAVAELKPDCCIDDVIHHEVK (UniProt A5PLN9) | 0.241 | 0.12 |
| TRIM28_Q13263_232_DCQLNAHK (UniProt Q13263) | -0.0189 | -0.0334 |
| TRIP4_Q15650_171+173_LAVLLPGRHPCDCLGQK (UniProt Q15650) | -0.116 | -0.0952 |
| TRIM4_Q9C037_109_LFCEDDQRPVCLVCR (UniProt Q9C037) | -0.0186 | 0.105 |
| TRMT1L_Q7Z2T5_186+189_MGAHYHCIICSATITR (UniProt Q7Z2T5) | 0.0515 | 0.117 |
| TRIM36_Q9NQ86_48_ELFTHPLILPCQHSICHK (UniProt Q9NQ86) | 0.0853 | -0.0459 |
| TRIM33_Q9UPN9_943_DIGKPEVEYDCDNLQHSK (UniProt Q9UPN9) | -0.0255 | -0.0943 |
| TRAFD1_O14545_90_LAVCQHCDLELSILK (UniProt O14545) | 0.104 | 0.0865 |
| TRMT1L_Q7Z2T5_189_MGAHYHCIICSATITR (UniProt Q7Z2T5) | 0.103 | 0.00773 |
| TRANK1_O15050_1947_DFQASCLLGAAR (UniProt O15050) | 0.136 | 0.0594 |
| TRIOBP_Q9H2D6_2280_SSCELEVLLR (UniProt Q9H2D6) | -0.0593 | -0.177 |
| TPK1_Q9H3S4_88_GCELISTPDQDHTDFTK (UniProt Q9H3S4) | 0.0274 | -0.182 |
| TRAF7_Q6Q0C0_226_DHEGSCDYRPVR (UniProt Q6Q0C0) | -0.187 | -0.148 |
| TRAP1_Q12931_527_DTEVLFCFEQFDELTLLHLR (UniProt Q12931) | 0.0593 | 0.194 |
| TRIP6_Q15654_387_GLDGIPFTVDATSQIHCIEDFHRK (UniProt Q15654) | 0.112 | -0.158 |
| TPP2_P29144_710_FCSLPEK (UniProt P29144) | -0.0483 | -0.202 |
| TRAPPC8_Q9Y2L5_1330_SLCLVPVTLLLSNCSK (UniProt Q9Y2L5) | -0.0978 | -0.0472 |
| TPRA1_Q86W33_30_CLLLLYEDIGTSR (UniProt Q86W33) | -0.144 | -0.0162 |
| TRIT1_Q9H3H1_298_CTLETSNQLLK (UniProt Q9H3H1) | -0.0228 | -0.0748 |

| Target | probe-labelled cysteine peptide fold change (10 µM) | probe-labelled cysteine peptide fold change (50 µM) |
| --- | --- | --- |
| TRAPPC10_P48553_403_SLGYLCGLVSEK (UniProt P48553) | 0.168 | 0.0086 |
| TRIM21_P19474_359_EAWDLGVCR (UniProt P19474) | 0.189 | 0.145 |
| TRAPPC8_Q9Y2L5_1074_HTAIICTSR (UniProt Q9Y2L5) | 0.0667 | 0.334 |
| TRIAP1_O43715_37_GDSSGDPCTDLFK (UniProt O43715) | -0.13 | 0.0603 |
| TRIM28_Q13263_124_QQCFSK (UniProt Q13263) | -0.0594 | 0.076 |
| TRAP1_Q12931_527_KDTEVLFCFEQFDELTLLHLR (UniProt Q12931) | 0.119 | 0.112 |
| TRMT112_Q9UI30_100_TMHHLLLEVEVIEGTLQCPESGR (UniProt Q9UI30) | -0.0301 | 0.0326 |
| TPX2_Q9ULW0_145_CATPVIIDEILPSK (UniProt Q9ULW0) | -0.077 | -0.276 |
| TREX1_Q9NSU2_35_VTELCLLAVHR (UniProt Q9NSU2) | -0.0721 | 0.0463 |
| TRMT112_Q9UI30_33_ICPVEFNPNFVAR (UniProt Q9UI30) | -0.296 | -0.14 |
| TRIP12_Q14669_1538_TCPFFFPFDTR (UniProt Q14669) | 0.187 | 0.0456 |
| TRIP4_Q15650_187_LINNCLICGR (UniProt Q15650) | -0.00907 | -0.0574 |
| TRIM11_Q96F44_330_FDPGPCVLGQER (UniProt Q96F44) | -0.0286 | 0.0502 |
| TRMT1L_Q7Z2T5_164_MCICHLPCRPVKPNIIGEQITSK (UniProt Q7Z2T5) | 0.143 | 0.239 |
| TRIM25_Q14258_122_TCLVCMASFCQEHLQPHFDSPAFQDHPLQPPVR (UniProt Q14258) | -0.105 | -0.107 |
| TRMT1_Q9NXH9_376_FSAACGPPVTPECEHCGQR (UniProt Q9NXH9) | 0.157 | 0.015 |
| TRMT1L_Q7Z2T5_656_KFLCYLSQAGFR (UniProt Q7Z2T5) | -0.445 | -0.278 |
| TRIM33_Q9UPN9_447_CDPVPAANGAIR (UniProt Q9UPN9) | -0.0213 | -0.0021 |
| TRIM14_Q14142_20_SELVEGCGWR (UniProt Q14142) | -0.0272 | 0.0312 |
| TPI1_P60174_164_VAHALAEGLGVIACIGEKLDER (UniProt P60174) | -0.548 | -0.3 |
| TRMT1L_Q7Z2T5_419_RHYGCNIVR (UniProt Q7Z2T5) | 0.026 | 0.249 |
| TRIM13_O60858_25_VLPCSHNFCK (UniProt O60858) | 0.0685 | 0.0148 |
| TRAF3_Q13114_141_NDCHFEELPCVRPDCK (UniProt Q13114) | -0.114 | -0.0423 |
| TRMT10A_Q8TBZ6_285_ACESASHDNQSVR (UniProt Q8TBZ6) | 0.000416 | -0.192 |

Quoted at random: 3 entries already listed.

| Target | probe-labelled cysteine peptide fold change (10 µM) | probe-labelled cysteine peptide fold change (50 µM) |
| --- | --- | --- |
| TRMT1L_Q7Z2T5_164_MCICHLPCRPVKPNIIGEQITSK (UniProt Q7Z2T5) | 0.143 | 0.239 |
| TRIM33_Q9UPN9_447_CDPVPAANGAIR (UniProt Q9UPN9) | -0.0213 | -0.0021 |
| TRIP6_Q15654_387_GLDGIPFTVDATSQIHCIEDFHRK (UniProt Q15654) | 0.112 | -0.158 |
